Hit rate of the full screen: of about 2,400 compounds, fewer than 10 were called active. The shares of active, inactive and inconclusive entries below differ from those in the screen.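 How the source made its calls: active means highest replicate activation at or above 34% and every replicate reaching that threshold; inconclusive means meets only one of the two criteria; inactive means meets neither criterion.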
Each compound was assayed against Protein FosB (Mus musculus) (UniProt P13346) (assay: activators of mouse delta FosB DNA binding, confirmation, biochemical, fluorescence polarization, TAMRA-CDK5 oligo, cherry-picked samples (AID 588690;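 further: higher polarization means more probe DNA bound by delta FosB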)). Conditions: purified delta FosB, at 24.9 µM, stronger effect = higher value.

Chains of the proteins cited; added tags and fusions are not shown.
UniProt P13346, whole entry, looked up: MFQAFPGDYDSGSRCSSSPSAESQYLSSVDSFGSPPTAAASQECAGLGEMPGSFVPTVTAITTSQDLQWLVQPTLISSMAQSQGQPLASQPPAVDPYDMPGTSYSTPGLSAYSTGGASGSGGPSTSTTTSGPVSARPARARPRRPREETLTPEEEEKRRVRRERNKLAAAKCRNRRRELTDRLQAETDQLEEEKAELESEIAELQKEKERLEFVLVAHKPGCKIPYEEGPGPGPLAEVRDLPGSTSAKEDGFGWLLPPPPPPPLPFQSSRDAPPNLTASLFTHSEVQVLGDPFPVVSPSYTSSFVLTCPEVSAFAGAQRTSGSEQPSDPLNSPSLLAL

Row | SMILES | activation
1 | C[N+]1=C(/C=C/Nc2ccccc2)C(C)(C)c2ccccc21 | inconclusive: 7.03%
2 | O=C(/C=C/c1c[nH]c2ccccc12)c1c(O)n(CCc2ccccc2)c(=O)[nH]c1=O | inconclusive: 19.3%
3 | CCCCCn1c(=O)c(C(=O)Nc2ccccc2S(N)(=O)=O)c(O)c2ccccc21 | inconclusive: 10.5%

— PubChem BioAssay AID588690 (Broad Institute, 2011)
